Publication PMC7819943, “Rice protein-binding microarrays: a tool to detect cis-acting elements near promoter regions in rice”
The other results are listed elsewhere or left out.

Biological target: T1, OsSMF1 (Oryza sativa, UniProt Q6ZLB0 1-436)
T1 sequence: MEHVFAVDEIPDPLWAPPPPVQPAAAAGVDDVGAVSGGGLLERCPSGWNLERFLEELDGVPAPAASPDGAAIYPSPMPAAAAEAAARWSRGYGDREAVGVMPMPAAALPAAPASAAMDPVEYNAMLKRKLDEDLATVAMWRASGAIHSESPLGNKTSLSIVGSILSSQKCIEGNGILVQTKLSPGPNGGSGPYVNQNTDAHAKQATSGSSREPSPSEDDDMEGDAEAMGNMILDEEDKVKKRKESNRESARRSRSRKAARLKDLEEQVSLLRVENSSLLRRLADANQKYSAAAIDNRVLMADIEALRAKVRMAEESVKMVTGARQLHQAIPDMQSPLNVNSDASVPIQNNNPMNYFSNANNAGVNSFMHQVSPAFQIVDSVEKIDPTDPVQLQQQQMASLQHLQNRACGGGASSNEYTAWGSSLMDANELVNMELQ
Assay: protein-binding microarray (RPBM); PBS, 2% BSA, 51.3 ng/ul salmon testes DNA, 50 uM zinc acetate, 200 nM TF, 25 C, 1 h; high values mean tight binding
Details: protein: recombinant; tags: N-terminal polyhistidine and DsRed monomer fusion (pET32a); chain copies: 2; label: CyDye5-dUTP incorporated in the synthesized complementary strand; 3' TTTTT single-stranded linker to array surface; dsDNA, one strand shown
Summary of the method: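 Transcription factors were each fused at the N-terminus to a polyhistidine tag plus DsRed and expressed in E. coli BL21-CodonPlus before Ni–NTA purification. Binding to a double-stranded custom Agilent array was carried out with 200 nM protein at 25 °C for 1 h in PBS, 2% BSA, salmon testes DNA and 50 µM zinc acetate. The binding signal is per-feature fluorescence intensity, in arbitrary units, on an Axon 4000B scanner.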

| Sequence | binding signal |
| --- | --- |
| CGGCCACCAACCGCGGGCCCACCCGTCAGTGACGGTGGGTCGGAGTCACCTAGTGCAG | 3630 fluorescence intensity (a.u.) |
| CCCTCAGTGCTCTCATTGACTCATCCAACGGCTGAAATGCCGGAGTCACCTAGTGCAG | 4210 fluorescence intensity (a.u.) |
| GAAAGATATCCAGTGAGGAGATCCAAGCACGAGAGCTAATCGGAGTCACCTAGTGCAG | 3280 fluorescence intensity (a.u.) |
| TCTGGGTTAATATGTTGCTAGATGCTAATATTCTGGGTTGCGGAGTCACCTAGTGCAG | 3320 fluorescence intensity (a.u.) |
| TGTAGAGAACGGCACGTGGCGACATGACCGTCGATCATGTCGGAGTCACCTAGTGCAG | 7000 fluorescence intensity (a.u.) |
| TTGAGACTGACATCAGAAAACCGCGGCGAGCTGGCGACTGCGGAGTCACCTAGTGCAG | 25800 fluorescence intensity (a.u.) |
| GTGCGTCGCTGCTGCGGACGCGGTCGCTGACACTGTGCTTCGGAGTCACCTAGTGCAG | 3700 fluorescence intensity (a.u.) |
| AGCATGCTTGCATTTATGGTGTACCATGGTCAGCAAGGAACGGAGTCACCTAGTGCAG | 3910 fluorescence intensity (a.u.) |
| CTGAAGAATTTGGATCCAACGTCCCAGATGCGCGCGTGTCCGGAGTCACCTAGTGCAG | 4070 fluorescence intensity (a.u.) |
| AAGAAAATGAAGAGAGATGTGGGGCCCACATCACTCTCTCCGGAGTCACCTAGTGCAG | 4320 fluorescence intensity (a.u.) |
| CACCGGGCGCCTCTTCCCTGTGGTAGCAGTCGCCGCCGCCCGGAGTCACCTAGTGCAG | 6170 fluorescence intensity (a.u.) |
| GTGTGGTTTTGCTGATGTGGCGCTGACGTGGCGATATTGACGGAGTCACCTAGTGCAG | 48500 fluorescence intensity (a.u.) |
| TCACTCTTTAAACACGTAAGTTAAAATTCAACTTTTACAGCGGAGTCACCTAGTGCAG | 3870 fluorescence intensity (a.u.) |
| CGCCGGCGCTAGGCGAATCGCAATGATGACGGCAAGGAGGCGGAGTCACCTAGTGCAG | 3300 fluorescence intensity (a.u.) |
| GGGAGTAACTTAAGTAATTTATCAAGAAGGTAGTAGCTACCGGAGTCACCTAGTGCAG | 6490 fluorescence intensity (a.u.) |
| CATGGGGCACGTGCCACGCAAGGACTTCGCCCACACCATGCGGAGTCACCTAGTGCAG | 9510 fluorescence intensity (a.u.) |
| CTCGATCCAGATCGAACGGCCGCCCCGTCACCGCGACCGCCGGAGTCACCTAGTGCAG | 4930 fluorescence intensity (a.u.) |
| TCATCTGGTACAAAATATATAGGACATCAATCATGGGGAACGGAGTCACCTAGTGCAG | 26200 fluorescence intensity (a.u.) |
| AGGTATGGGCCGTCCCATCAGAAGGTCATTCGGACGGCAGCGGAGTCACCTAGTGCAG | 3360 fluorescence intensity (a.u.) |
| CAAGCGTTGCATCAGTGGGTGCACGCGCGTGGCAGGGGTCCGGAGTCACCTAGTGCAG | 4900 fluorescence intensity (a.u.) |
| TTTGCAACCCTCATCGTTTCTCTTCGTCAGATACTCAGATCGGAGTCACCTAGTGCAG | 3570 fluorescence intensity (a.u.) |

Reformatted field by field: part of the list above
TCACTCTTTAAACACGTAAGTTAAAATTCAACTTTTACAGCGGAGTCACCTAGTGCAG
  binding signal: 3870 fluorescence intensity (a.u.)
CGCCGGCGCTAGGCGAATCGCAATGATGACGGCAAGGAGGCGGAGTCACCTAGTGCAG
  binding signal: 3300 fluorescence intensity (a.u.)
TCATCTGGTACAAAATATATAGGACATCAATCATGGGGAACGGAGTCACCTAGTGCAG
  binding signal: 26200 fluorescence intensity (a.u.)

Later entries

| Sequence | binding signal |
| --- | --- |
| ATATAGGGGTTGGTCTTCCACGTCAAATTTGGGGTAGATACGGAGTCACCTAGTGCAG | 5460 fluorescence intensity (a.u.) |
| TGTAGATGATTTTGATCTTGATTTTGCACGTATGCATAACCGGAGTCACCTAGTGCAG | 4800 fluorescence intensity (a.u.) |
| TACTCGACGATGACCACGCGGCGTCCCTCCCGGACGACGTCGGAGTCACCTAGTGCAG | 3560 fluorescence intensity (a.u.) |
| CTCTTCTCTTGGTTTGGGGTGTCACGACTCACGACCTGCCCGGAGTCACCTAGTGCAG | 3350 fluorescence intensity (a.u.) |
| TTATCTAGCGTCGCTGCTGTGAGCCGGCCGTGATGTCATGCGGAGTCACCTAGTGCAG | 9110 fluorescence intensity (a.u.) |
| ATTGATACTGAGACTGACTCGGTTTTCGTCAAGGTGTTCTCGGAGTCACCTAGTGCAG | 3380 fluorescence intensity (a.u.) |
| TGCAGGAGGATGGCCCGCCACGCGGTGTTTTGGGCCGTTCCGGAGTCACCTAGTGCAG | 3270 fluorescence intensity (a.u.) |
| TAGTACTATGAATCTGTATAGAAGTAGGTAGGATGTATCACGGAGTCACCTAGTGCAG | 21200 fluorescence intensity (a.u.) |
| CACGACACGGCTCCTGGACCTCCTCGCCCACGTGAACCCGCGGAGTCACCTAGTGCAG | 30100 fluorescence intensity (a.u.) |
| GTTTGTTGTCCTATTAAAATTTGGTAATGCCAAAATTTAGCGGAGTCACCTAGTGCAG | 9940 fluorescence intensity (a.u.) |
| TCCCTCCCTCCGCCGCGCCACGCCCACCCACGCATCCATCCGGAGTCACCTAGTGCAG | 4110 fluorescence intensity (a.u.) |
| TGCGAACTCGCTACGTGGAATACTTGGGCCCTTCCCTTCCCGGAGTCACCTAGTGCAG | 5370 fluorescence intensity (a.u.) |
| AGGCTGGATCTAGTGGGTTGCTGCGTTGTCGCTAGGTTGTCGGAGTCACCTAGTGCAG | 17200 fluorescence intensity (a.u.) |
| CCTACTCAATTGCGTCACCCGTGTATAAATCCATTCGGATCGGAGTCACCTAGTGCAG | 7920 fluorescence intensity (a.u.) |
| AGTGCTAGTCATCACTGTATTAGATTTAGGAATCTCTTCTCGGAGTCACCTAGTGCAG | 3600 fluorescence intensity (a.u.) |
| AAATTTGGCAGGAGTAGCAATGTATCATGTCGTAGTCTGGCGGAGTCACCTAGTGCAG | 3140 fluorescence intensity (a.u.) |
| AGCAGCAGCTGGACCACACTGCTGTGCTTGGAGCCCGGGGCGGAGTCACCTAGTGCAG | 20000 fluorescence intensity (a.u.) |
| GCCGCCGCCGGCAATCCATGTGCACTGATGTGCAGACATACGGAGTCACCTAGTGCAG | 3380 fluorescence intensity (a.u.) |
| CAGCCGCTGAACAAAAGAGGATCAGCGAAGAGGCGCAAGGCGGAGTCACCTAGTGCAG | 12300 fluorescence intensity (a.u.) |
| ACTATAAGTAGAGACCTGTTCATCATGGACAGGCAGGCAGCGGAGTCACCTAGTGCAG | 7140 fluorescence intensity (a.u.) |
| GCAAGAATTTTCCGTCATACTTCCTGTTCGGATAAGACCACGGAGTCACCTAGTGCAG | 3180 fluorescence intensity (a.u.) |
